The values below come from paper PMC12040169 (PLOS Biology, 2025).

The list shows a part of the results.

This assay deals with T1, CTL2-GFP (C. trachomatis L2/434/Bu, GFP-expressing).
T1 construct: L2/434/Bu, GFP-expressing
Set-up: species or system HeLa; Intracellular C. trachomatis growth in HeLa cells, bulk GFP fluorescence relative to DMSO. The following applies: bulk GFP, single well; 28.5 h, 10 µM; inhibitor.
With `CC(=C\C(=O)O)/C(=C/c1ccncc1)C(=O)O` [CBK278265N], the “% of control remaining” value worked out at 87.1921%.

With `O=C(Cc1cccnc1)N1CCC(O)(c2cccc(F)c2)CC1` [CBK283537], the “% of control remaining” value came out at 99.7828%.

On to `COc1cccc(NC(=O)NCCc2ccncc2)c1` [CBK270022], for which the “% of control remaining” value is 100.687%.

In the case of `O=C(O)COCC(=O)NC12CC3CC(CC(C3)C1)C2` [CBK287065], the “% of control remaining” value stood at 108.963%.

For the compound `CCNC(=O)Nc1ccc(-c2ccc(SC)cc2)c2ccccc12` [CBK083723], the “% of control remaining” value stood at 136.336%.

With `O=C1CCCCCN1CP(=O)(O)CCc1ccccc1` [CBK262313], the “% of control remaining” value worked out at 115.61%.

On to `Cc1nc(CCNC(=O)C2CCN(C(=O)c3ccc(F)cc3)CC2)cs1` [CBK304378], for which the “% of control remaining” value came to 100.357%.

As for `O=S(=O)(Nc1ccc2nsnc2c1)c1cccc(C(F)(F)F)c1` [CBK062221], the “% of control remaining” value amounted to 100.225%.

On to `Cn1cc(NC(=O)c2ccc(COc3c(F)c(F)cc(F)c3F)o2)c(C(=O)O)n1` [CBK287014], for which the “% of control remaining” value worked out at 114.359%.

For the compound `CN1CC(=O)N2CCOC(C2)c2cccc(n2)NC(=O)C/C=C/CC2(CCN(c3ncccn3)CC2)C1=O` (centres unmarked) [CBK292188], the “% of control remaining” value is 148.61%.

In the case of `c1ccc(-c2nc3cnccn3c2Nc2ccc3c(c2)OCCO3)cc1` [CBK287857], the “% of control remaining” value is reported as 146.44%.

Regarding `NC1CCN(c2nccnc2OCCOc2cccnc2)CC1` [CBK003889F], the “% of control remaining” value came to 137.035%.

`Cc1ccc(OCc2cc(-c3ccco3)on2)c([N+](=O)[O-])n1` [CBK233261]: the “% of control remaining” value was 153.769%.

As to `O=C(NC(Nc1ncccn1)C(Cl)(Cl)Cl)c1ccccc1` (centres unmarked) [CBK261408], the “% of control remaining” value amounted to 116.359%.

Turning to `O=S(=O)(/N=C(/NS(=O)(=O)c1cccc2ccccc12)c1ccccc1)c1ccccc1` [CBK263105], the “% of control remaining” value was 101.205%.

With `COc1ccc(-c2cnc(NS(C)(=O)=O)c(C(=O)NCc3ccco3)c2)cc1` [CBK076539], the “% of control remaining” value is 126.68%.

As to `COc1ccc(-c2cncc(C3CN(Cc4cccc5ncccc45)CCO3)n2)cc1` (centres unmarked) [CBK285947], the “% of control remaining” value worked out at 116.473%.

Consider `COc1ccc(Cn2nc(NS(=O)(=O)c3ccc(-c4ccon4)s3)c3ccccc32)cc1` [CBK048031], for which the “% of control remaining” value came out at 138.932%.

On to `Cc1nccn1CC1(O)CCN(C(=O)Cc2cccc(F)c2)CC1` [CBK282184], for which the “% of control remaining” value is 117.2%.

Take `Nc1cc(=O)[nH]c(=O)n1Cc1ccc(Cl)cc1` [CBK288002]: the “% of control remaining” value amounted to 169.486%.

Consider `O=C(NC[C@H]1O[C@@H](CC(=O)N2CCN(c3ccccn3)CC2)[C@H](O)[C@@H]1O)C1CC1` [CBK288904], for which the “% of control remaining” value is recorded as 113.359%.

Take `O=C(Oc1cccc2cccnc12)c1ccc(Br)o1` [CBK019461]: the “% of control remaining” value is listed as 101.98%.

Take `COc1ccc(C(=O)NCC(O)CN2CCOCC2)cc1[N+](=O)[O-]` (centres unmarked) [CBK265643]: the “% of control remaining” value is 106.799%.

As to `O=C(CC1Sc2ccccc2NC1=O)Nc1ccc(C(F)(F)F)cc1` (centres unmarked) [CBK287585], the “% of control remaining” value was 118.454%.

Regarding `COc1cccc(NC(=O)CCS(=O)(=O)c2ccccc2)c1` [CBK270150], the “% of control remaining” value is listed as 132.061%.

Consider `CC(c1ccc(Cl)cc1)N(CCN(C)C)c1ccccn1` (centres unmarked) [CBK012273F], for which the “% of control remaining” value was 131.794%.

In the case of `CCNC(=O)Nc1ccc([C@@H](O)[C@H]2COCC(=O)N2CC)cc1` [CBK289696], the “% of control remaining” value turned out to be 118.13%.

As to `COc1ccc(CCNC(=O)CN2CCCC2Cn2cccn2)cc1` (centres unmarked) [CBK306147], the “% of control remaining” value is reported as 139.13%.

In the case of `COc1cccc(-c2cncc(C3CCCN(Cc4ccc5[nH]ccc5c4)C3)n2)c1` (centres unmarked) [CBK286151], the “% of control remaining” value was determined as 148.085%.

Turning to `CCOC(=O)c1sc2nc(C)cc(C)c2c1N` [CBK097355], the “% of control remaining” value is 119.286%.

As for `O=C(COc1ccc(S(=O)(=O)NC2CCCCC2)cc1)Nc1ccc2c(c1)OCO2` [CBK265960], the “% of control remaining” value turned out to be 136.27%.

In the case of `O=C(Nc1ccccc1N1CCN(C(=O)c2ccc(Cl)cc2)CC1)c1ccc(-c2cc3ccccc3oc2=O)cc1` [CBK267280], the “% of control remaining” value amounted to 162.613%.

Consider `Oc1cccnc1N1CCNCC1` [CBK045850], for which the “% of control remaining” value amounted to 110.519%.

In the case of `Clc1ccc(SCc2cccc(CSc3ccc(Cl)c(Cl)c3)n2)cc1Cl` [CBK223404], the “% of control remaining” value is 118.271%.

Turning to `Cc1cc(Cl)cc(Cl)c1OCCCc1c(C)n[nH]c1C` [CBK025733C], the “% of control remaining” value was determined as 100.767%.

For `O=C(NCc1ccco1)c1nn(-c2nc3ccccc3s2)c2ccccc12` [CBK048482], the “% of control remaining” value stood at 154.993%.

Take `CC1(CNS(=O)(=O)Cc2cc(F)cc(F)c2)COC1` [CBK281413]: the “% of control remaining” value was found to be 114.486%.

Consider `CC(C)NS(=O)(=O)c1ccc(OCC(=O)Nc2ccc3c(c2)OCO3)c(Cl)c1` [CBK267919], for which the “% of control remaining” value is recorded as 140.188%.

As to `CN1C(=O)COc2ccccc2C/C=C/C[C@@H]2[C@H]1CCCN2C(=O)CCCNc1ncccn1` [CBK292168], the “% of control remaining” value came out at 99.5478%.

On to `CC(=O)c1cccc(-c2cnc(N)c(-c3ccc(O)cc3)n2)c1` [CBK122508], for which the “% of control remaining” value is reported as 127.903%.

As to `CC(C)NC(=O)[C@H]1CN2CCC1C[C@@H]2Cn1cc(C2(O)CCCC2)nn1` (some centres unmarked) [CBK289090], the “% of control remaining” value is 127.722%.

Take `Cc1ccc2c(c1)C(NC(=O)C1CCN(S(C)(=O)=O)CC1)CC(C)(C)O2` (centres unmarked) [CBK307604]: the “% of control remaining” value is recorded as 89.287%.

For `Cc1ccc(-c2noc(CN3CCN(c4ccccc4)CC3)n2)cc1` [CBK265924], the “% of control remaining” value came to 194.068%.

With `CN(C)C(=O)CO[C@@H]1CO[C@H]2[C@@H]1OC[C@@H]2Nc1nccc(-c2cccs2)n1` [CBK289515], the “% of control remaining” value came out at 74.7248%.

Consider `Cc1cc(C)nc(N2CCC(c3cc(CCOc4cccc(C(F)(F)F)c4)[nH]n3)C2)n1` (centres unmarked) [CBK285568], for which the “% of control remaining” value is 143.829%.

For the compound `NS(=O)(=O)c1ccc(NC(=S)NC(=O)c2cccc3c(Cl)cccc23)cc1` [CBK268814], the “% of control remaining” value was 121.836%.

Turning to `Cc1cccc(C2(O)CCN(CC(O)c3ccc4c(c3)CCC4)CC2)c1` (centres unmarked) [CBK286330], the “% of control remaining” value was determined as 131.645%.

With `Cn1ccnc1C1(O)C2CCCC1CN(Cc1ccc(F)c(F)c1)C2` (centres unmarked) [CBK285189], the “% of control remaining” value came out at 81.6914%.

Take `COc1ccccc1NC(=O)CSCc1nc2ccccc2[nH]1` [CBK268385]: the “% of control remaining” value worked out at 154.171%.

As to `CCn1c(=O)sc2cc(Br)ccc21` [CBK026526], the “% of control remaining” value is recorded as 131.172%.
